Experimental data published in paper PMC13143212.
Results are given in words; binding and its absence hold for the method and conditions named. In cells and extracts the contact can be indirect. Some binding calls cover weakened binding; strength is not graded here.

Amino acid sequences for entries named in this document (tags omitted). A change or cut given only in a name is not applied to a line headed by its entry. Chains listed by the source or under a name are the forms on record and can include a tag or linker. Residues count along the entry.
STIM2.2 fused to YFPn (Q9P246, residues 15-746): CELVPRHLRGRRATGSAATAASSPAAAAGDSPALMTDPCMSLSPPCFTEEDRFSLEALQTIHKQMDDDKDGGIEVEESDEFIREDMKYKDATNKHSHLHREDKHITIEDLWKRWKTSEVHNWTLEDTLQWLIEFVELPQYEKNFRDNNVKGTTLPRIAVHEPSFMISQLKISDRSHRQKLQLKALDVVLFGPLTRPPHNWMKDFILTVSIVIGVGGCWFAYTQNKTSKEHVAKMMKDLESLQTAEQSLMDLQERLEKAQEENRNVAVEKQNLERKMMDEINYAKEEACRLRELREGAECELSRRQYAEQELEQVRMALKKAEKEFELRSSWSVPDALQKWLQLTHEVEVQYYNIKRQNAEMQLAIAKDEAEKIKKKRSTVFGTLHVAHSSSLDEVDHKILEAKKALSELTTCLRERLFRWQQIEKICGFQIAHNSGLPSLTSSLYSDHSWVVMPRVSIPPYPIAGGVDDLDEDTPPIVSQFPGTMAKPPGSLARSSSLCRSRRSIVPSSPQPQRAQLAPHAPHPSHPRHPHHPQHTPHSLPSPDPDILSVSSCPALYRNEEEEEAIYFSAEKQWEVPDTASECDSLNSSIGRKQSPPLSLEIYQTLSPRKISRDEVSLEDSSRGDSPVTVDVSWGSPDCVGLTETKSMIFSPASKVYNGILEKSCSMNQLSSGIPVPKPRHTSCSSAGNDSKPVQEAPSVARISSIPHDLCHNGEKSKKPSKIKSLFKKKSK
HA-STIM2.3 fused to YFPc (Q9P246, form named): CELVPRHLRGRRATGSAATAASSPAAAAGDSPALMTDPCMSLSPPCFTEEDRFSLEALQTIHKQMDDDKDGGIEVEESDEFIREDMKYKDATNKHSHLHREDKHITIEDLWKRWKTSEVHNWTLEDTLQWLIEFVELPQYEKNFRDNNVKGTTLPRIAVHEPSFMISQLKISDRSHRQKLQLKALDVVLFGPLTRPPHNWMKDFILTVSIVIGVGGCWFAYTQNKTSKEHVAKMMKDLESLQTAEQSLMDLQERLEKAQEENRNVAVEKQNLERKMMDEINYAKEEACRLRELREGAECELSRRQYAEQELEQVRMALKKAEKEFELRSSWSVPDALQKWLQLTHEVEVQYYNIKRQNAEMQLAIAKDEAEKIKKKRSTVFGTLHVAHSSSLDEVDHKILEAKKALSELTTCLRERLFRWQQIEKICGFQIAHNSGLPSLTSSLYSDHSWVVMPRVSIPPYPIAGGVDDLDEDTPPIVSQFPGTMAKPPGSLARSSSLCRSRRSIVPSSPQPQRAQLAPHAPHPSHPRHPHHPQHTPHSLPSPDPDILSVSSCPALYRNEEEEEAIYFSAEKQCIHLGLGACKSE
UniProt Q96SN7: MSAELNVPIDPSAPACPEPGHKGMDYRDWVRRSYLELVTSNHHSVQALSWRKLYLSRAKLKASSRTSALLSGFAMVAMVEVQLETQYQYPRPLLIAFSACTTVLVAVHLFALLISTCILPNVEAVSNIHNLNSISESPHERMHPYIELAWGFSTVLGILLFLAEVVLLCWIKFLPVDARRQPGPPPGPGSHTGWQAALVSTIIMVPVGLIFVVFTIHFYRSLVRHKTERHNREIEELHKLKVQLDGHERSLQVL
UniProt Q13586, residues 23-685: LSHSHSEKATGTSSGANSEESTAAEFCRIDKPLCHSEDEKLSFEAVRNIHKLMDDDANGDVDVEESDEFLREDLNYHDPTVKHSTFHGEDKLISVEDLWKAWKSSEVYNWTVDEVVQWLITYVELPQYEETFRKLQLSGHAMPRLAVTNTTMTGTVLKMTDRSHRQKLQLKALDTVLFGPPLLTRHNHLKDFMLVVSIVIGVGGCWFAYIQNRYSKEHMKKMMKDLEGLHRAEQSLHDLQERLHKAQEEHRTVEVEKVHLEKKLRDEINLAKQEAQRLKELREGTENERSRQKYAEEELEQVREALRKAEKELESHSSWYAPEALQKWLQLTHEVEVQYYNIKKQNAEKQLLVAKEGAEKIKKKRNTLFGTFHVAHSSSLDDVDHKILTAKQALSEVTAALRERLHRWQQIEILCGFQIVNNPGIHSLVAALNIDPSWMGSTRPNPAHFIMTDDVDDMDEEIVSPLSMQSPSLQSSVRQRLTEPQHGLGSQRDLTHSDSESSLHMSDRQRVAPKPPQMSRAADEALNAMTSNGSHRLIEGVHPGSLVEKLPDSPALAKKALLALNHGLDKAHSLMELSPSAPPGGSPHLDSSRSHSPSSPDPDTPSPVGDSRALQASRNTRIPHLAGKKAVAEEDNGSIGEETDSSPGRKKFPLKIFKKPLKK

What follows are substances tested against HA-STIM2.3 fused to YFPc (human) (UniProt Q9P246) (assay: split reporter; BiFC in HEK STIM1/2 DKO cells: HA-STIM2 variant-YFPc as bait, protein of interest-YFPn as prey, equimolar DNA; 1 µM TG for 10 min 24 h after transfection; percent YFP-positive viable cells by flow cytometry).

Row | Substance | binding
1 | ORAI2 fused to YFPn (from UniProt Q96SN7 1-254) | binds
2 | STIM1 fused to YFPn (from UniProt Q13586 23-685) | binds
3 | STIM2.2 fused to YFPn (from UniProt Q9P246-1 15-746) | binds
